Measurements reported in paper PMC7892623.
No constants are given. Whether binding was seen depends on the method and setting. In cells and extracts the contact can be indirect. Some entries that bind do so weakly or less than the wild type.

Chains of the proteins cited; added tags and fusions are not shown.
UniProt Q15910: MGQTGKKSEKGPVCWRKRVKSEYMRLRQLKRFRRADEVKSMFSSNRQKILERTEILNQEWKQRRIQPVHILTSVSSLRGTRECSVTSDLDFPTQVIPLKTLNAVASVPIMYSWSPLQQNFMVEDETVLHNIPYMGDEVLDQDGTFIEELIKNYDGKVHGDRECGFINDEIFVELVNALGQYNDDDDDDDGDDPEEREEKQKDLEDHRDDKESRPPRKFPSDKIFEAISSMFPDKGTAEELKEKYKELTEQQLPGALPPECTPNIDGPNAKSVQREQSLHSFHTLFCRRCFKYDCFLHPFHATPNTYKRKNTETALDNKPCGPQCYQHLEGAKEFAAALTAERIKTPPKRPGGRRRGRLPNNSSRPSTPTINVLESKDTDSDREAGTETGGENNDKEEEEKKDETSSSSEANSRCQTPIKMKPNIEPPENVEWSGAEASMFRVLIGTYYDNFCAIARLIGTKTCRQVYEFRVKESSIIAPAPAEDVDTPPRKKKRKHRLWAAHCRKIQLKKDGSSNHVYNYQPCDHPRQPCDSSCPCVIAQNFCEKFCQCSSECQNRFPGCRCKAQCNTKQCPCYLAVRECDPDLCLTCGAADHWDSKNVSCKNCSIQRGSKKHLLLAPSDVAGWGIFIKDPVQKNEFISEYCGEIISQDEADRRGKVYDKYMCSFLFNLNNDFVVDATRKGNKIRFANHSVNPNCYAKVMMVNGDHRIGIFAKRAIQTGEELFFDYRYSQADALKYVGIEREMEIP

Target: EZH2 (human (endogenous in HepG2 and PLC8024)) (UniProt Q15910)
Test: co-IP; precipitation with a specific antibody for DDX11 or for EZH2 from HepG2 and PLC8024 cells, detection by western blot; no further conditions given

B1: DDX11 (protein, UniProt Q96FC9 1-970)
chain: MANETQKVGAIHFPFPFTPYSIQEDFMAELYRVLEAGKIGIFESPTGTGKSLSLICGALSWLRDFEQKKREEEARLLETGTGPLHDEKDESLCLSSSCEGAAGTPRPAGEPAWVTQFVQKKEERDLVDRLKAEQARRKQREERLQQLQHRVQLKYAAKRLRQEEEERENLLRLSREMLETGPEAERLEQLESGEEELVLAEYESDEEKKVASRVDEDEDDLEEEHITKIYYCSRTHSQLAQFVHEVKKSPFGKDVRLVSLGSRQNLCVNEDVKSLGSVQLINDRCVDMQRSRHEKKKGAEEEKPKRRRQEKQAACPFYNHEQMGLLRDEALAEVKDMEQLLALGKEARACPYYGSRLAIPAAQLVVLPYQMLLHAATRQAAGIRLQDQVVIIDEAHNLIDTITGMHSVEVSGSQLCQAHSQLLQYVERYGKRLKAKNLMYLKQILYLLEKFVAVLGGNIKQNPNTQSLSQTGTELKTINDFLFQSQIDNINLFKVQRYCEKSMISRKLFGFTERYGAVFSSREQPKLAGFQQFLQSLQPRTTEALAAPADESQASTLRPASPLMHIQGFLAALTTANQDGRVILSRQGSLSQSTLKFLLLNPAVHFAQVVKECRAVVIAGGTMQPVSDFRQQLLACAGVEAERVVEFSCGHVIPPDNILPLVICSGISNQPLEFTFQKRELPQMMDEVGRILCNLCGVVPGGVVCFFPSYEYLRQVHAHWEKGGLLGRLAARKKIFQEPKSAHQVEQVLLAYSRCIQACGQERGQVTGALLLSVVGGKMSEGINFSDNLGRCVVMVGMPFPNIRSAELQEKMAYLDQTLSPRPGTPREGSGGEPVHEGRQPVHRQGHQAPEGFCQRSAPGPAICPAPCPGQAAGLDPSPCGGQSYLWPRHCCCAEVSPGEVGLFLMGNHTTAWRRALPLSCPLETVFVVGVVCGDPVTKVKPRRRVWSPECCQDPGTGVSSRRRKWGNPE
For B1, the binding was “binds”.
